Protein sequences, listed by entry. Tags and fused reporters are not part of them. Lines headed by an entry give the natural chain unless they say otherwise; changes in a name come on top.
UniProt P01137: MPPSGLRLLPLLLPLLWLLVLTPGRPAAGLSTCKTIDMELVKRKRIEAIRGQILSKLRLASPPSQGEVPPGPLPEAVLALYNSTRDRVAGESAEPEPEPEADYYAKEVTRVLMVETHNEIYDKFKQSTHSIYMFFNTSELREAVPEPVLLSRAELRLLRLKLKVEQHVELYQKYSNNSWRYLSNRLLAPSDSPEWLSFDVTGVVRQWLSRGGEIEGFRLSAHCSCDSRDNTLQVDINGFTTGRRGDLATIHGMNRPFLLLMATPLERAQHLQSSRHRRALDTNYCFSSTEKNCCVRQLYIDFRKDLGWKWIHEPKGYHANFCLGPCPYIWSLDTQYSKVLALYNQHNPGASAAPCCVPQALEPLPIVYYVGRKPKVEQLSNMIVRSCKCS

In patent WO2019045086A1:

Legend:
[1] = molecular target: TGF-β1 (human) (UniProt P01137); test: Western blot of lysates of cells or tissue overexpressing TGF-β1
[2] = molecular target: TGF-β1 (human) (UniProt P01137); test: fluorescent immunoassay on HepG2 cells
[3] = molecular target: active TGF-β1 (human) (UniProt P01137); test: immunostaining of colon cancer tissue sections
[4] = molecular target: TGF-β1 (human) (UniProt P01137); test: immunostaining of colon cancer tissue sections

Row | binding [1] | binding [2] | binding [3] | binding [4] | Binder
1 | binds | binds | binds |  | mouse anti-active TGF-β1 antibody clone 2H4 (antibody, V domains shown) VH: EVKLQQSGTVLARPGTSVKMSCKASGYTFSNYWMHWVKQRPGQGLEWIGAIYPGNSDTRFNQKFKGKAKLTAVTSASTAYMDLSSLTDEDSAVYYCTGYSNYEAGAMDYWGQGTSVTVSS VL: DIVMTQSPSSLAVSSGEKVTMSCKSSQSLLNSRTRKNYLAWYQQKPGQSPKLLIYWASTRESGVPDRFTGSGSGTDFTLTISGVQAEDLAVYYCQQSYHLPTFGGGTKLEIKR
2 | binds | binds | binds |  | mouse anti-active TGF-β1 antibody clone 4D10 (antibody, V domains shown) VH: EVKLQQSGTVLARPGTSVKMSCKASGYTFSNYWMHWVKQRPGQGLEWIGAIYPGNSDTRFNQKFKGKAKLTAVTSASTAYMDLSSLTDEDSAVYYCTGYSNYEAGAMDYWGQGTSVTVSS VL: DIVMTQSPSSRAVSSGEKVTMSCKSSQSLLNSRTRKNYLAWYQQKPGQSLKLLIYWASTRESGVPDRFTGSGSGTDFTLTISGVQAEDLAVYYCQQSYHLPTFGGGTKLEIKR
3 |  |  |  | binds | mouse anti-latent TGF-β1 antibody clone 2F10 (antibody, V domains shown) VH: EVQLQQSGPELVKPGASVKISCKASGYTFTDYYMNWVRQSHGKSLEWIGDIIPNSGGTSYNQKFKGKATLTVDMSSSTAYMELRSLTSEDSAVYYCTTEAMDYWGQGTSVTVSS VL: DIVLTQSPATLSVTPGDSVSLSCRASQSIRNKLHWYQQKSHESPRLLIKYASQSISRIPSRFSGSGSGTDFTLSINSVETEDFGMYFCLQSNSWPLTFGSGTKLEIKR

No constants are given. Whether binding was seen depends on the method and setting. Binding can be weak; no strength is given.
